Results are given in words; binding and its absence hold for the method and conditions named. Some entries that bind do so weakly or less than the wild type.
How the values were obtained:
[1] = target: KDR (VEGFR-2, Flk-1), full-length receptor on cells (human) (UniProt P35968); assay: peptide-conjugated microbubbles on KDR- and mock-transfected 293H cells in 50% human serum, percent of surface covered
[2] = target: KDR (VEGFR-2, Flk-1), full-length receptor on cells (human) (UniProt P35968); assay: peptide-conjugated microbubbles on KDR-transfected 293H cells in 50% human serum
[3] = target: T1, KDR/VEGF complex on KDR-transfected 293H cells (human) (UniProt P35968+P15692); assay: total binding of the peptide/125I-streptavidin complex in the presence of VEGF to mock- and KDR-transfected 293H cells
[4] = target: T1, KDR/VEGF complex on KDR-transfected 293H cells (human); assay: peptide/125I-streptavidin complex on KDR- and mock-transfected 293H cells with VEGF

Amino acid sequences for entries named in this document (tags omitted). A change or cut given only in a name is not applied to a line headed by its entry. Residues count along the entry.
UniProt P35968, residues 20-1356: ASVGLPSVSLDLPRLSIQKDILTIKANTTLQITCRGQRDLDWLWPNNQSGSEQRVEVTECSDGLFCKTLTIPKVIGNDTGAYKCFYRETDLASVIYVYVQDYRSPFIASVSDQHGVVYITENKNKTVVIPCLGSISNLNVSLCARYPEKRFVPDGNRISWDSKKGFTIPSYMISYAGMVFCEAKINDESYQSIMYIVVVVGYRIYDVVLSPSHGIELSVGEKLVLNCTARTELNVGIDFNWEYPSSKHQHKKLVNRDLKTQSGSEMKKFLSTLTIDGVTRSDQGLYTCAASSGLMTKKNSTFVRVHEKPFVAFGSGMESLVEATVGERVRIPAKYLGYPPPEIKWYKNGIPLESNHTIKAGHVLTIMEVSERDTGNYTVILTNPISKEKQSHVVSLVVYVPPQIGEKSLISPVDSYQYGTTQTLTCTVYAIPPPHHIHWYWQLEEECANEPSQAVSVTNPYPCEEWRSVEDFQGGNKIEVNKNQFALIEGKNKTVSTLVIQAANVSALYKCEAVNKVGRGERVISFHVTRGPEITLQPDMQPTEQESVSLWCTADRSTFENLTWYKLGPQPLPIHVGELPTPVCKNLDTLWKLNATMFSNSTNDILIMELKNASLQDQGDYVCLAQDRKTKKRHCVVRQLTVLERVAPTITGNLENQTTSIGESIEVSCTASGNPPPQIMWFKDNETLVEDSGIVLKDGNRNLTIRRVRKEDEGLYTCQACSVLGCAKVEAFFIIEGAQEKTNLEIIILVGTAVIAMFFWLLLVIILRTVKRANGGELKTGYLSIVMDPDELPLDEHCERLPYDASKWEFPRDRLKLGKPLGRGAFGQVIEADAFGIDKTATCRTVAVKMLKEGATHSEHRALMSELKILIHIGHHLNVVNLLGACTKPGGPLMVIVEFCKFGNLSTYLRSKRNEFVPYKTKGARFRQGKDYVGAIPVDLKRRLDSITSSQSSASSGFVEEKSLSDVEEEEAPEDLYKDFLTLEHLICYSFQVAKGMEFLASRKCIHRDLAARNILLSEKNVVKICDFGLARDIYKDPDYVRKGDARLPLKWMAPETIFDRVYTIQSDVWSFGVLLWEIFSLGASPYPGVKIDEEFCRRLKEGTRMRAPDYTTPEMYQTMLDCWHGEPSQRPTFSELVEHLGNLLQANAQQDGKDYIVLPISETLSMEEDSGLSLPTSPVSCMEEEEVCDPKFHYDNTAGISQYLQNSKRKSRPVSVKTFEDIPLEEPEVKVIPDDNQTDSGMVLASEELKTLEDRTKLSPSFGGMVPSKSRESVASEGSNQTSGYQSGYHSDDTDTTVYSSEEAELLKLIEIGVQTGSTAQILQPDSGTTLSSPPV
UniProt P15692: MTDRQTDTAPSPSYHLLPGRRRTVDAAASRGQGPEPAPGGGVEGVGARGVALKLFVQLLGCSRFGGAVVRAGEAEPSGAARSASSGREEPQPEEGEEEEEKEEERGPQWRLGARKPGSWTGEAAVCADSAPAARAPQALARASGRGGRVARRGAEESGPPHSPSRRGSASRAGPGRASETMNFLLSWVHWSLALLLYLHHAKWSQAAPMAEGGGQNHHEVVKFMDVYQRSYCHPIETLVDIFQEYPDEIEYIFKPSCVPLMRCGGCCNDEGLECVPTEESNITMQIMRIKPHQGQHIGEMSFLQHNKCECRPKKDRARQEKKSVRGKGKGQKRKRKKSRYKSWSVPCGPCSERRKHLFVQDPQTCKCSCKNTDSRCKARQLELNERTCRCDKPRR

B1: mixed monomers (P6 derivative and P12 derivative in equal quantities) conjugated to microbubbles (peptide)
peptide 1: GDSRVCWEDSWGGEVCFRYDP
peptide 2: AGPTWCEDDWYYCWLFGT
modifications: joined to the microbubble
binding [1]: binds | binding [2]: binds

B2: P30-XB complex with 125I-streptavidin (peptide)
peptide: AGPGPCKGYMPHQCWYMGTGGGK
modifications: N-acetyl; C-terminal Lys N-epsilon Biotin-JJ; C-terminal amide
binding [3]: binds | binding [4]: binds
